Reference: the supplement of paper PMC4604168 (melanoma cell lines)
This is one part of the list. Single values are uncertain, as repeats are few or missing.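 Imaging used 1,536-well plates; nuclei positive for cleaved PARP by antibody were divided by total DNA-stained nuclei to yield the apoptosis fraction. Doses for screening kept most cells viable, and cell lines differ markedly in resting and induced cleaved-PARP levels.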

Key:
Assay in all cases: cleaved PARP positive nuclei fraction relative to DMSO control; melanoma cells; higher = more apoptosis
Conditions in all cases: library dose: low library concentration; 72 h
WM115 = system: WM115
WM1716 = system: WM1716
WM1745 = system: WM1745
WM3526 = system: WM3526
WM3619 = system: WM3619
WM451Lu = system: WM451Lu

Structure (SMILES) | cleaved PARP positive nuclei fraction (WM115) [%] | cleaved PARP positive nuclei fraction (WM1716) [%] | cleaved PARP positive nuclei fraction (WM1745) [%] | cleaved PARP positive nuclei fraction (WM3526) [%] | cleaved PARP positive nuclei fraction (WM3619) [%] | cleaved PARP positive nuclei fraction (WM451Lu) [%]
NCC(=O)Nc1ccc(-n2nc(C(F)(F)F)cc2-c2ccc3c(ccc4ccccc43)c2)cc1 + CCN(CC)CCCCNc1ncc2cc(-c3cc(OC)cc(OC)c3)c(NC(=O)NC(C)(C)C)nc2n1 [PD173074] (first compound 1 µM, partner dose 0.1 µM) | 157 | 185 | 126 | 125 | 74 | 1830
COc1cc2c(Oc3ccc4[nH]c(C)cc4c3F)ncnc2cc1OCCCN1CCCC1 [cediranib] + COc1cc(N2CCC(N3CCN(C)CC3)CC2)ccc1Nc1ncc(Cl)c(Nc2ccccc2S(=O)(=O)C(C)C)n1 [NVP-TAE684] (first compound 0.4 µM, partner dose 0.08 µM) | 139 | 89.7 | 139 | 151 | 93.8 | 60.1
O=C(Nc1ccccc1)c1cc([N+](=O)[O-])ccc1Cl + CC(C)CCN1c2nc(Nc3cc(F)c(O)c(F)c3)ncc2N(C)C(=O)C1C [BID1870] (first compound 2 µM, partner dose 0.2 µM) | 113 | 87.4 | 110 | 100 | 155 | 75.5
NCC(=O)Nc1ccc(-n2nc(C(F)(F)F)cc2-c2ccc3c(ccc4ccccc43)c2)cc1 + CN(NC(=O)CC(=O)NN(C)C(=S)c1ccccc1)C(=S)c1ccccc1 [STA4783] (first compound 1 µM, partner dose 0.006 µM) | 131 | 162 | 194 | 225 | 176 | 172
O=C(Nc1ccccc1)c1cc([N+](=O)[O-])ccc1Cl + N#Cc1c(O)c2c(-c3ccc(-c4ccccc4O)cc3)csc2[nH]c1=O [A769662] (first compound 2 µM, partner dose 2 µM) | 289 | 29.9 | 91.3 | 210 | 97.8 | 60
COC(=O)c1sccc1S(=O)(=O)Nc1ccc(Nc2ccccc2)cc1OC + Oc1cc(-c2nc(-c3ccccc3)[nH]c2-c2ccncc2)ccc1Cl [L779450] (first compound 1 µM, partner dose 0.2 µM) | 82.6 | 152 | 115 | 90 | 91.8 | 90.9
COc1cc(N2CCC(N3CCN(C)CC3)CC2)ccc1Nc1ncc(Cl)c(Nc2ccccc2S(=O)(=O)C(C)C)n1 + CC(C)CCN1c2nc(Nc3cc(F)c(O)c(F)c3)ncc2N(C)C(=O)C1C [BID1870] (first compound 0.08 µM, partner dose 0.2 µM) | 156 | 114 | 175 | 86.5 | 98 | 119
CN(NC(=O)CC(=O)NN(C)C(=S)c1ccccc1)C(=S)c1ccccc1 + COc1cc(N2CCC(N3CCN(C)CC3)CC2)ccc1Nc1ncc(Cl)c(Nc2ccccc2S(=O)(=O)C(C)C)n1 [NVP-TAE684] (first compound 0.006 µM, partner dose 0.08 µM) | 177 | 135 | 194 | 66.8 | 128 | 146
COc1ccc(COc2ccc(Cc3cnc(N)nc3N)cc2OC)cc1 + O=C1NC(=O)/C(=C/c2ccc(-c3ccc(F)cc3O)o2)S1 [AS252424] (first compound 1 µM, partner dose 1 µM) | 176 | 145 | 100 | 55.9 | 88.3 | 66.5
Oc1cc(-c2nc(-c3ccccc3)[nH]c2-c2ccncc2)ccc1Cl + O=C1NC(=O)/C(=C/c2ccc(-c3ccc(F)cc3O)o2)S1 [AS252424] (first compound 0.2 µM, partner dose 1 µM) | 639 | 61.4 | 107 | 416 | 140 | 87
O=C(O)C(=O)Nc1sc2c(c1C(=O)O)CCNC2 + CC(C)CCN1c2nc(Nc3cc(F)c(O)c(F)c3)ncc2N(C)C(=O)C1C [BID1870] (first compound 1.66667 µM, partner dose 0.2 µM) | 35.2 | 163 | 131 | 77.8 | 55.5 | 27.8
COC(=O)c1sccc1S(=O)(=O)Nc1ccc(Nc2ccccc2)cc1OC + COc1ccc(COc2ccc(Cc3cnc(N)nc3N)cc2OC)cc1 [GW2580] (first compound 1 µM, partner dose 1 µM) | 207 | 173 | 90.7 | 63.9 | 84.3 | 162
CCc1ccc(CCOc2ccc(CC3SC(=O)NC3=O)cc2)nc1 (stereo not drawn) [pioglitazone] + N#Cc1c(O)c2c(-c3ccc(-c4ccccc4O)cc3)csc2[nH]c1=O [A769662] (first compound 2 µM, partner dose 2 µM) | 227 | 35.2 | 107 | 167 | 95.6 | 66
CN(C)S(=O)(=O)c1ccc2c(c1)/C(=C/c1cc3c([nH]1)CCCC3)C(=O)N2 + COc1ccc(COc2ccc(Cc3cnc(N)nc3N)cc2OC)cc1 [GW2580] (first compound 0.4 µM, partner dose 1 µM) | 58.3 | 97.6 | 108 | 196 | 86.7 | 27.3
CN(C)S(=O)(=O)c1ccc2c(c1)/C(=C/c1cc3c([nH]1)CCCC3)C(=O)N2 + c1cc(-c2cnn3cc(-c4ccc(OCCN5CCCCC5)cc4)cnc23)ccn1 [Dorsomorphin] (first compound 0.4 µM, partner dose 0.4 µM) | 260 | 64.9 | 144 | 77 | 70.8 | 44.5
COc1cc2c(Oc3ccc4[nH]c(C)cc4c3F)ncnc2cc1OCCCN1CCCC1 [cediranib] + CCc1ccc(CCOc2ccc(CC3SC(=O)NC3=O)cc2)nc1 [pioglitazone] (first compound 0.4 µM, partner dose 2 µM) | 68 | 90.8 | 121 | 61.4 | 104 | 57
CCN(CC)CCCCNc1ncc2cc(-c3cc(OC)cc(OC)c3)c(NC(=O)NC(C)(C)C)nc2n1 + O=S(=O)(c1ccccc1)N(CC(F)(F)F)c1ccc(C(O)(C(F)(F)F)C(F)(F)F)cc1 [T0901317] (first compound 0.1 µM, partner dose 1.4 µM) | 208 | 30 | 115 | 64.3 | 66.4 | 89.8
CN(C)S(=O)(=O)c1ccc2c(c1)/C(=C/c1cc3c([nH]1)CCCC3)C(=O)N2 + COc1ccc2c(c1)CCC1C2CCC2(C)C(NCCCCCCN3C(=O)C=CC3=O)CCC12 [U73122] (first compound 0.4 µM, partner dose 0.4 µM) | 100 | 185 | 126 | 66.9 | 81.6 | 97.5
Oc1nc(-c2ccc(C(F)(F)F)cc2)nc2c1CSCC2 + COc1cc(N2CCC(N3CCN(C)CC3)CC2)ccc1Nc1ncc(Cl)c(Nc2ccccc2S(=O)(=O)C(C)C)n1 [NVP-TAE684] (first compound 2 µM, partner dose 0.08 µM) | 383 | 96.7 | 108 | 59 | 110 | 120
O=C1NC(=O)/C(=C/c2ccc(-c3ccc(F)cc3O)o2)S1 + Cn1cc(/C=C2\C(=O)Nc3cccnc32)c2ccccc21 [GW441756] (first compound 1 µM, partner dose 0.4 µM) | 65.7 | 147 | 97.2 | 42.3 | 98.5 | 326
O=C(Nc1ccccc1)c1cc([N+](=O)[O-])ccc1Cl + Cn1cc(/C=C2\C(=O)Nc3cccnc32)c2ccccc21 [GW441756] (first compound 2 µM, partner dose 0.4 µM) | 80.1 | 52.9 | 109 | 58.3 | 80.5 | 54.7
COc1cc2c(Oc3ccc4[nH]c(C)cc4c3F)ncnc2cc1OCCCN1CCCC1 [cediranib] + CCCCCCCCCCCC1=C(O)C(=O)C=C(O)C1=O [Embelin] (first compound 0.4 µM, partner dose 1.2 µM) | 116 | 145 | 116 | 122 | 162 | 55.2
COc1ccc(-c2ccc3c(N4CCOCC4)nc(N4C[C@@H](C)O[C@@H](C)C4)nc3n2)cc1CO + Oc1cc(-c2nc(-c3ccccc3)[nH]c2-c2ccncc2)ccc1Cl [L779450] (first compound 0.02 µM, partner dose 0.2 µM) | 237 | 194 | 103 | 85.8 | 112 | 86.8
O=C(Nc1ccccc1)c1cc([N+](=O)[O-])ccc1Cl + c1cc(-c2cnn3cc(-c4ccc(OCCN5CCCCC5)cc4)cnc23)ccn1 [Dorsomorphin] (first compound 2 µM, partner dose 0.4 µM) | 104 | 137 | 128 | 53.4 | 109 | 56.4
COC(=O)c1sccc1S(=O)(=O)Nc1ccc(Nc2ccccc2)cc1OC + O=c1cc(-c2cccc3c2Sc2ccccc2S3)oc(N2CCOCC2)c1 [KU55933] (first compound 1 µM, partner dose 1 µM) | 137 | 75.6 | 107 | 139 | 106 | 64.2
COc1ccc(-c2ccc3c(N4CCOCC4)nc(N4C[C@@H](C)O[C@@H](C)C4)nc3n2)cc1CO + O=C(O)C(=O)Nc1sc2c(c1C(=O)O)CCNC2 [TCS401] (first compound 0.02 µM, partner dose 1.66667 µM) | 113 | 126 | 105 | 33.3 | 70.2 | 32.1
O=c1cc(-c2cccc3c2Sc2ccccc2S3)oc(N2CCOCC2)c1 + CC(C)CCN1c2nc(Nc3cc(F)c(O)c(F)c3)ncc2N(C)C(=O)C1C [BID1870] (first compound 1 µM, partner dose 0.2 µM) | 102 | 61.3 | 110 | 83.7 | 102 | 105
O=C(Nc1ccccc1)c1cc([N+](=O)[O-])ccc1Cl + COc1ccc(COc2ccc(Cc3cnc(N)nc3N)cc2OC)cc1 [GW2580] (first compound 2 µM, partner dose 1 µM) | 48.1 | 84.2 | 97.9 | 65.8 | 65.3 | 154

Quoted from the entries so far for reference:
Structure (SMILES) | cleaved PARP positive nuclei fraction (WM115) [%] | cleaved PARP positive nuclei fraction (WM1716) [%] | cleaved PARP positive nuclei fraction (WM1745) [%] | cleaved PARP positive nuclei fraction (WM3526) [%] | cleaved PARP positive nuclei fraction (WM3619) [%] | cleaved PARP positive nuclei fraction (WM451Lu) [%]
COC(=O)c1sccc1S(=O)(=O)Nc1ccc(Nc2ccccc2)cc1OC + Oc1cc(-c2nc(-c3ccccc3)[nH]c2-c2ccncc2)ccc1Cl [L779450] (first compound 1 µM, partner dose 0.2 µM) | 82.6 | 152 | 115 | 90 | 91.8 | 90.9
COc1cc(N2CCC(N3CCN(C)CC3)CC2)ccc1Nc1ncc(Cl)c(Nc2ccccc2S(=O)(=O)C(C)C)n1 + CC(C)CCN1c2nc(Nc3cc(F)c(O)c(F)c3)ncc2N(C)C(=O)C1C [BID1870] (first compound 0.08 µM, partner dose 0.2 µM) | 156 | 114 | 175 | 86.5 | 98 | 119
CN(NC(=O)CC(=O)NN(C)C(=S)c1ccccc1)C(=S)c1ccccc1 + COc1cc(N2CCC(N3CCN(C)CC3)CC2)ccc1Nc1ncc(Cl)c(Nc2ccccc2S(=O)(=O)C(C)C)n1 [NVP-TAE684] (first compound 0.006 µM, partner dose 0.08 µM) | 177 | 135 | 194 | 66.8 | 128 | 146
COc1ccc(COc2ccc(Cc3cnc(N)nc3N)cc2OC)cc1 + O=C1NC(=O)/C(=C/c2ccc(-c3ccc(F)cc3O)o2)S1 [AS252424] (first compound 1 µM, partner dose 1 µM) | 176 | 145 | 100 | 55.9 | 88.3 | 66.5
Oc1cc(-c2nc(-c3ccccc3)[nH]c2-c2ccncc2)ccc1Cl + O=C1NC(=O)/C(=C/c2ccc(-c3ccc(F)cc3O)o2)S1 [AS252424] (first compound 0.2 µM, partner dose 1 µM) | 639 | 61.4 | 107 | 416 | 140 | 87
O=C(O)C(=O)Nc1sc2c(c1C(=O)O)CCNC2 + CC(C)CCN1c2nc(Nc3cc(F)c(O)c(F)c3)ncc2N(C)C(=O)C1C [BID1870] (first compound 1.66667 µM, partner dose 0.2 µM) | 35.2 | 163 | 131 | 77.8 | 55.5 | 27.8
COC(=O)c1sccc1S(=O)(=O)Nc1ccc(Nc2ccccc2)cc1OC + COc1ccc(COc2ccc(Cc3cnc(N)nc3N)cc2OC)cc1 [GW2580] (first compound 1 µM, partner dose 1 µM) | 207 | 173 | 90.7 | 63.9 | 84.3 | 162
CCc1ccc(CCOc2ccc(CC3SC(=O)NC3=O)cc2)nc1 (stereo not drawn) [pioglitazone] + N#Cc1c(O)c2c(-c3ccc(-c4ccccc4O)cc3)csc2[nH]c1=O [A769662] (first compound 2 µM, partner dose 2 µM) | 227 | 35.2 | 107 | 167 | 95.6 | 66
